PubChem BioAssay AID1224827 – NIAID – 2016
The whole screen tested about 3,800 reagents; below is an unselected part. About 2,200 of them (57%) count as active. 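Active means a strong reporter change in either direction; calls are per siRNA, not per gene; qiagen siRNAs gave weaker effects.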 The numbers tell different reagents against one gene apart. Not all columns of the deposit are shown. No sequences are given here.

Purpose: 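Confirm genes whose knock-down changes LPS-driven TNF promoter activity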 (follow-up of hits)
Cell system: RAW264.7 G9 mouse macrophage reporter clone
Reagents: single siRNA against mouse genes, 100 nM siRNA
Duration: siRNA for 2 days, then LPS about 16 h
Challenge: bacterial lipopolysaccharide (LPS), 10 ng/ml, cells fixed after overnight (about 16 h) stimulation
Detection: 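Imaged nuclear TNF reporter intensity, background removed, scaled per plate and to non-targeting control wells, as z-scores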
Scale: TNF reporter z-score, mean: higher = stronger Tnf promoter reporter signal; gene median z, three same-vendor siRNAs: higher = stronger Tnf reporter signal for the gene
Hit rule: 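An siRNA is called active when its mean z-score over replicates is at least +2 or at most -2; control wells get no call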

TNF reporter z-score, mean	gene median z, three same-vendor siRNAs	outcome	Gene	reagent no.
-0.473	-3.45	inactive	Tjp3	1
-3.84	-3.45	active	Tjp3	2
-4	-3.45	active	Tjp3	3
2.82	-0.791	active	Tjp3	4
-1.09	-0.791	inactive	Tjp3	5
-1.99	-0.791	inactive	Tjp3	6
-0.333	-1.91	inactive	Bmp2	1
-1.94	-1.91	inactive	Bmp2	2
-2.88	-1.91	active	Bmp2	3
1.95	0.105	inactive	Bmp2	4
2.43	0.105	active	Bmp2	5
-1.06	0.105	inactive	Bmp2	6

Next part, starting with the last 3 of the part before.
TNF reporter z-score, mean	gene median z, three same-vendor siRNAs	outcome	Gene	reagent no.
1.95	0.105	inactive	Bmp2	4
2.43	0.105	active	Bmp2	5
-1.06	0.105	inactive	Bmp2	6
2.25	-3.06	active	Fam53a	1
-3.45	-3.06	active	Fam53a	2
-3.57	-3.06	active	Fam53a	3
3.29	-2.35	active	Fam53a	4
-2.35	-2.35	active	Fam53a	5
-3.09	-2.35	active	Fam53a	6
-2.15	-3.08	active	Inppl1	1
-3.08	-3.08	active	Inppl1	2
-4.73	-3.08	active	Inppl1	3
5.67	2.01	active	Inppl1	4
4.22	2.01	active	Inppl1	5
0.641	2.01	inactive	Inppl1	6
